Test results taken from PubChem BioAssay AID2685 (National Center for Advancing Translational Sciences (NCATS), 2010).
The other results are listed elsewhere or left out. Further columns of the screen follow, without active or inactive calls. Compounds called inactive in the main read-out are mostly missing here. Words in brackets tell the shape of the fitted curve; partial curves, single points and poor fits give uncertain potencies.

Test: qHTS Assay for Lipid Storage Modulators in Drosophila S3 Cells;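 on cell number change: cells counted by Cell Tracker Red CMTPX staining in the red channel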
Settings: BODIPY lipid droplet fluorescence, 18-24 h; for cell number change: measured here: cell count max response, cells fed with added oleic acid
How it was run: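 Laser-scanning cytometry quantifies lipid droplet accumulation (500–530 nm total intensity; droplet/cell object ratio) in oleic acid-fed (400 uM added) Drosophila S3 cells treated with a concentration series. 20 uM Triacsin C defined 100% inhibition.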

[1] = measured here: cell number channel AC50, cells fed with added oleic acid
[2] = measured here: lipid fluorescence (Fed channel) AC50, cells fed with added oleic acid

| Structure (SMILES) | cell number change [%] | AC50 [1] | AC50 [2] |
| --- | --- | --- | --- |
| O=C(C1CCCN(S(=O)(=O)Cc2ccccc2)C1)N1CCc2ccccc21 (stereo not drawn) | 64.5 | 8.2 µM [rising, partial curve, poor fit] | 3.26 µM [rising, partial curve] |
| COc1cc(/C=N/Nc2snc(SC)c2C#N)cc(OC)c1OC | 51 | 16.4 µM [rising, single point] | 25.9 µM [rising, single point] |
| COc1ccc(-c2cn3c4c(sc3n2)CCCC4)cc1 | 119 | 16.4 µM [rising, partial curve] | 6.51 µM [rising, single point] |
| CCOC(=O)C(CC)n1nc(C)n2c(cc3occc32)c1=O (stereo not drawn) |  | 0.184 µM [rising, full curve, poor fit] |  |
| Oc1ccccc1C(=S)N1CCCCCC1 | 22.7 |  |  |
| Cc1ccc(OCC(=O)NCCO)cc1C | -2.14 |  |  |
| COc1cccc(C(=O)/C=C/Nc2cc(C)ccc2O)c1 | -68.2 | 32.6 µM [falling, single point] | 2.31 µM [falling, partial curve, poor fit] |
| O=C(CCc1ccccc1)N1CCCC(Nc2ccc(F)cc2)C1 (stereo not drawn) | -7.43 |  |  |
| Cn1cc(C(=O)N/N=C/C(Br)=C\c2ccccc2)ccc1=O | -5.17 |  | 29.1 µM [falling, single point] |
| Cc1ccc(O)c(C(=O)c2cnc3onc(-c4ccc(F)cc4)c3c2)c1 | -0.402 |  |  |
| CC(C(=O)Nc1ccc(S(=O)(=O)N2CCCC2)cc1)N1CCN(C(=O)c2ccco2)CC1 (stereo not drawn) |  | 6.51 µM [rising, single point] | 6.51 µM [rising, single point] |
| Cc1ccc(OCCOC(=O)c2cc(S(=O)(=O)N3CCCCC3)ccc2N2CCOCC2)cc1 |  |  | 6.51 µM [falling, partial curve] |
| Cc1cc(OCC(=O)Nc2ccc(CCO)cc2)c2c(C)c(C)c(=O)oc2c1 | -14.5 |  |  |
| CCOC(=O)CNC(=O)CSc1nnnn1-c1cc(C)ccc1C | 48.9 | 29.1 µM [rising, single point] |  |
| COc1ccc(C(=O)CSc2nc(SC)ns2)cc1OC | -8.16 |  | 4.11 µM [rising, partial curve] |
| Cc1cc(C)nc(N2CCCC(C(=O)NCc3cccc(C(F)(F)F)c3)C2)n1 (stereo not drawn) | -21.6 | 4.11 µM [falling, full curve, poor fit] | 1.84 µM [rising, single point] |
| COc1ccc(C(=O)NNC(=O)c2ccccc2[N+](=O)[O-])cc1Br | 11.3 |  | 18.4 µM [rising, single point] |
| Cc1ccc(C(c2sc3nc(C)nn3c2O)N2CCN(c3ccc(F)cc3)CC2)cc1 (stereo not drawn) | -12.6 |  | 0.092 µM [falling, full curve, poor fit] |
| COc1ccc(OC)c(-c2cc(C3CCN(C(=O)OC(C)(C)C)CC3)[nH]n2)c1 | -49.7 | 18.4 µM [falling, single point] | 29.1 µM [falling, single point] |
| COc1ccc(NC2CC(=O)N(c3cc([N+](=O)[O-])ccc3C)C2=O)cc1 (stereo not drawn) | -14.3 | 0.116 µM [falling, full curve, poor fit] | 3.26 µM [falling, full curve, poor fit] |

Ordered by molar mass (high to low): part of the list above

| Structure (SMILES) | cell number change [%] | AC50 [1] | AC50 [2] |
| --- | --- | --- | --- |
| Cc1cc(OCC(=O)Nc2ccc(CCO)cc2)c2c(C)c(C)c(=O)oc2c1 | -14.5 |  |  |
| Cc1ccc(O)c(C(=O)c2cnc3onc(-c4ccc(F)cc4)c3c2)c1 | -0.402 |  |  |
| Oc1ccccc1C(=S)N1CCCCCC1 | 22.7 |  |  |

(listing goes on)

| Structure (SMILES) | cell number change [%] | AC50 [1] | AC50 [2] |
| --- | --- | --- | --- |
| COc1ccc(N(C)S(=O)(=O)c2cccc(C(=O)NCC3CCCO3)c2)cc1 (stereo not drawn) | 12.8 |  | 6.51 µM [rising, single point] |
| CSc1ccccc1NC(=O)C1=CC(c2ccc(C)cc2)=NS(=O)(=O)N1C | -16.7 | 2.59 µM [falling, partial curve] | 1.3 µM [falling, partial curve] |
| Cn1c(=O)[nH]c(=O)c2c1nc(SCCC(=O)O)n2Cc1cccc(Br)c1 | 4.67 |  |  |
| CC(=O)c1ccc(NC(=O)CSCCO)cc1 | -28.9 |  | 25.9 µM [falling, single point] |
| COC(=O)c1ccccc1S(=O)(=O)N1CCC(C(=O)NC2=NCCS2)CC1 | 1.04 |  | 9.2 µM [rising, partial curve, poor fit] |
| CSc1nsc(SC)c1NC(=O)N1CCCC1 | -0.297 |  |  |
| COc1cccc(N(CC(=O)N2CCN(C)CC2)S(=O)(=O)c2ccccc2)c1 | -14.5 |  | 6.51 µM [falling, single point] |
| CC(C)(C)c1ccc(-c2nc(C#N)c(NCc3cccnc3)o2)cc1 | 59.7 | 3.26 µM [rising, full curve] | 29.1 µM [falling, single point] |
| COc1ccc(Cl)cc1NC(=O)C1Cc2cc(S(=O)(=O)N3CCCC3)ccc2N1C(C)=O (stereo not drawn) | -34.3 | 29.1 µM [falling, single point] |  |
| Cc1ccccc1Nc1nc(N)nc(CSCC(=O)Nc2cccc(Br)c2)n1 | 1.88 |  | 0.116 µM [rising, full curve] |
| COc1ccc(S(=O)(=O)N2CCOC2CNC(=O)C(=O)NCCc2ccccc2)cc1OC (stereo not drawn) | 16.7 |  | 25.9 µM [rising, single point] |
| O=C(CSc1nnc2c(n1)[nH]c1ccccc12)NCc1ccccc1F | 20.4 |  | 0.651 µM [falling, full curve] |
| O=C1CCN(Cc2ccc(O)cc2)CCN1[C@H](CO)c1ccccc1 | 11.4 | 6.51 µM [rising, single point] | 29.1 µM [rising, single point] |
| CC(NC(=O)c1ccco1)C(=O)OC(C)C(=O)NCc1ccccc1 (stereo not drawn) | -74.6 |  |  |
| COCCN(CCOC)C(=O)c1ccc(CSc2nc3ccccc3s2)cc1 | -9.06 |  |  |
| COc1ccccc1OCc1nnc(SCC(=O)N2CCCCC2)n1-c1ccccc1 | 1.26 |  |  |
| O=C(NC1CCCCCC1)C1CCN(S(=O)(=O)c2cccc3cccnc23)CC1 |  |  | 0.206 µM [rising, partial curve, poor fit] |
| CCc1nnc(NC(=O)c2cc(S(=O)(=O)N3CCN(c4ccccc4)CC3)ccc2Cl)s1 | -24.3 |  |  |
| COCC1CCCN(C(=O)c2ccc3oc(CCCc4ccccc4)nc3c2)C1 (stereo not drawn) |  |  | 14.6 µM [falling, partial curve] |
